No constants are given. Whether binding was seen depends on the method and setting. Binding seen in cells or lysates may run through a third protein. Some results given as binding are weak or reduced against the parent protein; the word gives no strength. Sequences can lack the tags named with a protein.
Target: T1, CD81 in HEK293 cells (human (HEK293 cells)) (UniProt P60033)
T1 sequence: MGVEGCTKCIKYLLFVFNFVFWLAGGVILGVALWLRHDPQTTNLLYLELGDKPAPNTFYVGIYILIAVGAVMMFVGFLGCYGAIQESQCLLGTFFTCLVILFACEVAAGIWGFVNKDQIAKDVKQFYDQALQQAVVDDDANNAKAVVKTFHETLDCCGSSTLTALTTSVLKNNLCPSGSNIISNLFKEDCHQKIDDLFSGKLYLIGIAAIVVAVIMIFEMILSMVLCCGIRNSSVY
Test: co-immunoprecipitation with anti-FPRP (1F11), 1% CHAPSO-solubilized HEK293 membranes, Western blot

B1: FPRP (PTGFRN, prostaglandin F2 receptor negative regulator) in HEK293 cells (protein)
chain: VPTATLVRVVGTELVIPCNVSDYDGPSEQNFDWSFSSLGSSFVELASTWEVGFPAQLYQERLQRGEILLRRTANDAVELHIKNVQPSDQGHYKCSTPSTDATVQGNYEDTVQVKVLADSLHVGPSARPPPSLSLREGEPFELRCTAASASPLHTHLALLWEVHRGPARRSVLALTHEGRFHPGLGYEQRYHSGDVRLDTVGSDAYRLSVSRALSADQGSYRCIVSEWIAEQGNWQEIQEKAVEVATVVIQPSVLRAAVPKNVSVAEGKELDLTCNITTDRADDVRPEVTWSFSRMPDSTLPGSRVLARLDRDSLVHSSPHVALSHVDARSYHLLVRDVSKENSGYYYCHVSLWAPGHNRSWHKVAEAVSSPAGVGVTWLEPDYQVYLNASKVPGFADDPTELACRVVDTKSGEANVRFTVSWYYRMNRRSDNVVTSELLAVMDGDWTLKYGERSKQRAQDGDFIFSKEHTDTFNFRIQRTTEEDRGNYYCVVSAWTKQRNNSWVKSKDVFSKPVNIFWALEDSVLVVKARQPKPFFAAGNTFEMTCKVSSKNIKSPRYSVLIMAEKPVGDLSSPNETKYIISLDQDSVVKLENWTDASRVDGVVLEKVQEDEFRYRMYQTQVSDAGLYRCMVTAWSPVRGSLWREAATSLSNPIEIDFQTSGPIFNASVHSDTPSVIRGDLIKLFCIITVEGAALDPDDMAFDVSWFAVHSFGLDKAPVLLSSLDRKGIVTTSRRDWKSDLSLERVSVLEFLLQVHGSEDQDFGNYYCSVTPWVKSPTGSWQKEAEIHSKPVFITVKMDVLNAFKYPLLIGVGLSTVIGLLSCLIGYCSSHWCCKKEVQETRRERRRLMSMEMD
With B1 the binding was “binds”.

Source: patent US20110008350A1 (published 2011)
